In publication PMC10692114 one finds binding data, which are given here for 1 substance.

By UniProt entry, the sequences of proteins in these tests, tags left out.
UniProt P78527: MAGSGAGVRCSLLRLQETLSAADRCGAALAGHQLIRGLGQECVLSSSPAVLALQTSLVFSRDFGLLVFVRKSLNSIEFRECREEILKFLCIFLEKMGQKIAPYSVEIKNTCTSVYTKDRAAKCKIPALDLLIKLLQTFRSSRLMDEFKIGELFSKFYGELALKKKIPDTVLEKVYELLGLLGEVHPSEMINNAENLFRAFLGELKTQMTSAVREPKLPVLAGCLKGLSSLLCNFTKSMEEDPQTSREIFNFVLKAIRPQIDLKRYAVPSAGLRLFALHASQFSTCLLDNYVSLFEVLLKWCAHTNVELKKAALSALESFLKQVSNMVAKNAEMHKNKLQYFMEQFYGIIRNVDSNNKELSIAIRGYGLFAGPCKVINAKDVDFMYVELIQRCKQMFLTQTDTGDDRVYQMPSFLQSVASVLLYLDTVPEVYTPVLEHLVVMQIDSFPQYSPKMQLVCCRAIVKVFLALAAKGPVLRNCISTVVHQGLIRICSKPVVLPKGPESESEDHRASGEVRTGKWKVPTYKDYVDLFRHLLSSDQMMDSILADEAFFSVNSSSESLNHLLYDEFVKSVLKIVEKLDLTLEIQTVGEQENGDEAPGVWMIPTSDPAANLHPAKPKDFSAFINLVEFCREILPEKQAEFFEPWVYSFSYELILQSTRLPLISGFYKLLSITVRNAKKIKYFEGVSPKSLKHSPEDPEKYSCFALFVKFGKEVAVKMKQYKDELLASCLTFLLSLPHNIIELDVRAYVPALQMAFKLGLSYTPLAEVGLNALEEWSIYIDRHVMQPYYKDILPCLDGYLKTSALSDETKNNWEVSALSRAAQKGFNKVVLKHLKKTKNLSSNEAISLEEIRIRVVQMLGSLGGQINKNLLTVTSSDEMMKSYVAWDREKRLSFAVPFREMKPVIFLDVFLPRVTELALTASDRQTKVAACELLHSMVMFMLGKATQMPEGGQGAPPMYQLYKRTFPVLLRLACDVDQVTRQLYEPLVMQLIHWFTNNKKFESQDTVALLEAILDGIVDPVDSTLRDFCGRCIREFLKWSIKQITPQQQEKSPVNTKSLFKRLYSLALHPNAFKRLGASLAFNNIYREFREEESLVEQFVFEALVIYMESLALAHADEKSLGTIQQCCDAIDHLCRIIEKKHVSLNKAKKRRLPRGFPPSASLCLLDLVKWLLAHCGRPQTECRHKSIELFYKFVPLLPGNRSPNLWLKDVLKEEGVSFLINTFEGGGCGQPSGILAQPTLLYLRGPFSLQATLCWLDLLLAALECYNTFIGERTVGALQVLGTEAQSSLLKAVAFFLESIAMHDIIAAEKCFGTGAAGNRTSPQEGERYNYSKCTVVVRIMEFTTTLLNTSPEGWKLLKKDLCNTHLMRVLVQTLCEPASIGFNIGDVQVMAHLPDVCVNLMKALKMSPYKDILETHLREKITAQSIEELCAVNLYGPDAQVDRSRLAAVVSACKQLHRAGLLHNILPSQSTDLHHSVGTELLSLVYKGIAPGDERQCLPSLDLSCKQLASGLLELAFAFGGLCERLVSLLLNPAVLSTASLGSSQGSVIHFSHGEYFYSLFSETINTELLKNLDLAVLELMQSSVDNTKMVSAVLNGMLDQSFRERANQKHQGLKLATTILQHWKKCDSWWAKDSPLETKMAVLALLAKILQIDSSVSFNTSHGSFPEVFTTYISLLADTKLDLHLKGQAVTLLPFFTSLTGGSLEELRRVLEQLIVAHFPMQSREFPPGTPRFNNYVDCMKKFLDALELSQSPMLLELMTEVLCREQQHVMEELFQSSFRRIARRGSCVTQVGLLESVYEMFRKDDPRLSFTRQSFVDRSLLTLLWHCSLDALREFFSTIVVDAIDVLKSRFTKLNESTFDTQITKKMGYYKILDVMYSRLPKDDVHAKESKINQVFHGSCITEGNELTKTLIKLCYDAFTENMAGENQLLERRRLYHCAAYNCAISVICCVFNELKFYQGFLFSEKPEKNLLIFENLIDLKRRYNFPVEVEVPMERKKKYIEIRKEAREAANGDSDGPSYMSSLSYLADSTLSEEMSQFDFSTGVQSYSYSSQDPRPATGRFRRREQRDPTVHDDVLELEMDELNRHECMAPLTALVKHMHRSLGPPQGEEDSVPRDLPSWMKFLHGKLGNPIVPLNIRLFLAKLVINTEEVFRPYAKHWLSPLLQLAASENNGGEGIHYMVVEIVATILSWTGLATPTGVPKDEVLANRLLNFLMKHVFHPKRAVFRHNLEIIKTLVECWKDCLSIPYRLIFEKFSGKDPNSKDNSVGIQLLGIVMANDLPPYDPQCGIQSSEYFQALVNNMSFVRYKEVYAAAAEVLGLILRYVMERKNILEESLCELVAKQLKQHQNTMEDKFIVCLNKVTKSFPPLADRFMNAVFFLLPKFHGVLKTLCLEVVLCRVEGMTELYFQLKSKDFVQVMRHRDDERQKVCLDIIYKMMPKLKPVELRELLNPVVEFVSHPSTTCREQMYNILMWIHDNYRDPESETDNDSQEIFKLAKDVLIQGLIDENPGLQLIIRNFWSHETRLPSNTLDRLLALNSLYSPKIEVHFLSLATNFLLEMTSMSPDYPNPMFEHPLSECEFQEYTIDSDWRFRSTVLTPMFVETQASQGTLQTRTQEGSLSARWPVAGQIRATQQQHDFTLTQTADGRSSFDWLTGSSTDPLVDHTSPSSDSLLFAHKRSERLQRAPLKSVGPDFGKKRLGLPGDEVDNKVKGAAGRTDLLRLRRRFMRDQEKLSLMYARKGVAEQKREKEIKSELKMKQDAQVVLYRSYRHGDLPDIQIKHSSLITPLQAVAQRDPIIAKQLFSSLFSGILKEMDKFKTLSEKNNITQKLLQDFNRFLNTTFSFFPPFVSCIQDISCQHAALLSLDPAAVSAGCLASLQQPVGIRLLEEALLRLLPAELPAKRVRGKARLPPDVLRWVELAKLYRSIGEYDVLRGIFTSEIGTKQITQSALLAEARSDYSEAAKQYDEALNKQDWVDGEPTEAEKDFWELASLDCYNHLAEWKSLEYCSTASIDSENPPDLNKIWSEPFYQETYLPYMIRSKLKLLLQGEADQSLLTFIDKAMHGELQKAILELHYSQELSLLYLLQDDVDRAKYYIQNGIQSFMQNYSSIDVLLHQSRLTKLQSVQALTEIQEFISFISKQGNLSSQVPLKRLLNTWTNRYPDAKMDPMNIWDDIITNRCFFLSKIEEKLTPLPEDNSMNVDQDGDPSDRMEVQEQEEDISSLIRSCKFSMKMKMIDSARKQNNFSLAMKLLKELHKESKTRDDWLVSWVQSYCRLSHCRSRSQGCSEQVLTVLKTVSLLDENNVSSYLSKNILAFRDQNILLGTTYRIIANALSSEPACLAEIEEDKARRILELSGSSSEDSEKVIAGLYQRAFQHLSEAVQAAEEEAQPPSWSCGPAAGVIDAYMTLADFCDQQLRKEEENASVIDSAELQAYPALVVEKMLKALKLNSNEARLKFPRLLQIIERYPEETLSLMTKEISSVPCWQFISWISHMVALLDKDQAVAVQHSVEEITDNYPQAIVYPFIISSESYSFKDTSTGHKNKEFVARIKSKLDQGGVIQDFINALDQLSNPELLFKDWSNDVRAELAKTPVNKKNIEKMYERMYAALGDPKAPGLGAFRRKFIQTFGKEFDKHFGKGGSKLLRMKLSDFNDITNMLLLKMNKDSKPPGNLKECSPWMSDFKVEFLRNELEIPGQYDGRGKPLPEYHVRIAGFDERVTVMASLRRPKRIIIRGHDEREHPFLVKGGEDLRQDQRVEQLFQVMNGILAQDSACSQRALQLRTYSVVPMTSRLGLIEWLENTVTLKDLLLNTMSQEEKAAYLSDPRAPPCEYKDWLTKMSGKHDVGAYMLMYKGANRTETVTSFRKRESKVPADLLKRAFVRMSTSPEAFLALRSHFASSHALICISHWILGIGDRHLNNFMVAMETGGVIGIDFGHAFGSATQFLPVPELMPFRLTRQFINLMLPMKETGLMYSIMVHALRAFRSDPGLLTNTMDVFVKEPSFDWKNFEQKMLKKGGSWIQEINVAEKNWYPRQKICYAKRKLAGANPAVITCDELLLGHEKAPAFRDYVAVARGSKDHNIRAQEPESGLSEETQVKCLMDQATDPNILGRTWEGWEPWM

Test [1] has as its target T1, SFB-MARCH5 2KR (UniProt Q9NX47).
T1 sequence: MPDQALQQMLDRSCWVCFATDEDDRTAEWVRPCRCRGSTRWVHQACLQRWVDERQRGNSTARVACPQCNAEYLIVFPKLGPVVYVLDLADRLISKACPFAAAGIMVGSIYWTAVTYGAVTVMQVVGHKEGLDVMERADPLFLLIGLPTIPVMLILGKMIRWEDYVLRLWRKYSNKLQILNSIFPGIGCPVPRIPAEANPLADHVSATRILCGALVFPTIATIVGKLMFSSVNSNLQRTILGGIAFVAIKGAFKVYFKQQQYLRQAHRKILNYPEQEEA
The test can be described thus: condition: only cells expressing catalytically inactive TFAM-FokI MT (no mtDSBs, DNA-PKcs not activated); pull-down; as a1, but cells cotransfected with catalytically inactive TFAM-FokI MT (no mtDSBs); SFB-MARCH5 captured on Streptavidin-Sepharose, NETN buffer, 1 h at 4 °C; Western blot.

The target in test [2] is T2, SFB-MARCH5 HW (UniProt Q9NX47).
T2 sequence: T1 sequence with R40K, H43W, R54K
The description is as above.

In test [3] the target is T1, SFB-MARCH5 2KR. Briefly: pull-down; SFB-MARCH5 captured on Streptavidin-Sepharose from lysates of HEK293T cells cotransfected with TFAM-FokI WT (mtDSBs induced), harvested 36 h later; MG132 cotreatment for SFB-MARCH5 2KR; NETN buffer (50 mM Tris-HCl pH 8.0, 150 mM NaCl, 0.5% NP-40, 5 mM EDTA), 1 h at 4 °C; Western blot.
Test [4] has as its target T2, SFB-MARCH5 HW. The description is as above.

Positions count from the first letter of the chain named. No constants are given. Whether binding was seen depends on the method and setting. Binding seen in cells or lysates may run through a third protein. Some binding calls cover weakened binding; strength is not graded here.

As to “DNA-dependent protein kinase, catalytic subunit (DNA-PKcs) (from UniProt P78527 1-4128) (enzyme)”, the binding result is listed as “no binding” in the test with SFB-MARCH5 2KR [1], “no binding” with SFB-MARCH5 HW [2], “binds” with SFB-MARCH5 2KR [3] and “binds” with SFB-MARCH5 HW [4].
